Laboratory results taken from the supplement of paper PMC10849652.
The list shows a part of the results. Residues, ends and D or L forms follow the SMILES beside them. *: point of attachment. Cbz = O=C(OCc1ccccc1)*

Protein sequences, listed by entry. Tags and fused reporters are not part of them. Lines headed by an entry give the natural chain unless they say otherwise; changes in a name come on top.
UniProt Q9Y262, whole entry, looked up: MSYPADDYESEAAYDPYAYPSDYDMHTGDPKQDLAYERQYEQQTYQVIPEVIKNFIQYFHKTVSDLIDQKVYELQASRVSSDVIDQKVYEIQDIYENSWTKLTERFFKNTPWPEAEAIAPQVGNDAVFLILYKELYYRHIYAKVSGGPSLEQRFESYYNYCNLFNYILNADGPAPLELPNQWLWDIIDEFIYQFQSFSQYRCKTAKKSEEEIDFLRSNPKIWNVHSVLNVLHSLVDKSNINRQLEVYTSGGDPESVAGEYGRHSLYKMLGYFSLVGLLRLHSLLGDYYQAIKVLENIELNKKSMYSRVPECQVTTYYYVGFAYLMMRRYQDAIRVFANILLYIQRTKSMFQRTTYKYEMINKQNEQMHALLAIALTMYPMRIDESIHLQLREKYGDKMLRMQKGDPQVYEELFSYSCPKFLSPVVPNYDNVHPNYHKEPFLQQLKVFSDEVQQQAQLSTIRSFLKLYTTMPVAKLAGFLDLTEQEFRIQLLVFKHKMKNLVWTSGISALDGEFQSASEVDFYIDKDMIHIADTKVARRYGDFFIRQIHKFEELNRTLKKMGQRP
UniProt P29692: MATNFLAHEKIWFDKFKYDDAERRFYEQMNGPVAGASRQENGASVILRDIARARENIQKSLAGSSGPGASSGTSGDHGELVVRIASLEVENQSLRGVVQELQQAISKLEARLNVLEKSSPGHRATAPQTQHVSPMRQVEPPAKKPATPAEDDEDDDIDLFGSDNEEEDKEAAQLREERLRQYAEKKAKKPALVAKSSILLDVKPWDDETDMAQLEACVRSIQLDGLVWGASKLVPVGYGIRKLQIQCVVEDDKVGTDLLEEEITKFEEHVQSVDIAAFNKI
UniProt Q9UI10, whole entry, looked up: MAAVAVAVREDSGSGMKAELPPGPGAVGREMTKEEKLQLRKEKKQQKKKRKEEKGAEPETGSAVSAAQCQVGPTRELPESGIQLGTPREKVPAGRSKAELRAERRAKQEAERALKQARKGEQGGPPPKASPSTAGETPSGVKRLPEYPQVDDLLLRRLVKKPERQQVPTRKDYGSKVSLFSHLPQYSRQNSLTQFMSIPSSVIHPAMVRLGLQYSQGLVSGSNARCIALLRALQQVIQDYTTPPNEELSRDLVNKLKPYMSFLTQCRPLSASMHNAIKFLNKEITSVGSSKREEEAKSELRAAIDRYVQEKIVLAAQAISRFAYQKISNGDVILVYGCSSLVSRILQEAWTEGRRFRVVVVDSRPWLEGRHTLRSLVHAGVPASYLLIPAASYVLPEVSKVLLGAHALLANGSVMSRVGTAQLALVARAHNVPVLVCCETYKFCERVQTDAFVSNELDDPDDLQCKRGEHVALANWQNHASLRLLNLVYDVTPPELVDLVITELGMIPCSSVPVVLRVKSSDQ
UniProt Q04637, whole entry, looked up: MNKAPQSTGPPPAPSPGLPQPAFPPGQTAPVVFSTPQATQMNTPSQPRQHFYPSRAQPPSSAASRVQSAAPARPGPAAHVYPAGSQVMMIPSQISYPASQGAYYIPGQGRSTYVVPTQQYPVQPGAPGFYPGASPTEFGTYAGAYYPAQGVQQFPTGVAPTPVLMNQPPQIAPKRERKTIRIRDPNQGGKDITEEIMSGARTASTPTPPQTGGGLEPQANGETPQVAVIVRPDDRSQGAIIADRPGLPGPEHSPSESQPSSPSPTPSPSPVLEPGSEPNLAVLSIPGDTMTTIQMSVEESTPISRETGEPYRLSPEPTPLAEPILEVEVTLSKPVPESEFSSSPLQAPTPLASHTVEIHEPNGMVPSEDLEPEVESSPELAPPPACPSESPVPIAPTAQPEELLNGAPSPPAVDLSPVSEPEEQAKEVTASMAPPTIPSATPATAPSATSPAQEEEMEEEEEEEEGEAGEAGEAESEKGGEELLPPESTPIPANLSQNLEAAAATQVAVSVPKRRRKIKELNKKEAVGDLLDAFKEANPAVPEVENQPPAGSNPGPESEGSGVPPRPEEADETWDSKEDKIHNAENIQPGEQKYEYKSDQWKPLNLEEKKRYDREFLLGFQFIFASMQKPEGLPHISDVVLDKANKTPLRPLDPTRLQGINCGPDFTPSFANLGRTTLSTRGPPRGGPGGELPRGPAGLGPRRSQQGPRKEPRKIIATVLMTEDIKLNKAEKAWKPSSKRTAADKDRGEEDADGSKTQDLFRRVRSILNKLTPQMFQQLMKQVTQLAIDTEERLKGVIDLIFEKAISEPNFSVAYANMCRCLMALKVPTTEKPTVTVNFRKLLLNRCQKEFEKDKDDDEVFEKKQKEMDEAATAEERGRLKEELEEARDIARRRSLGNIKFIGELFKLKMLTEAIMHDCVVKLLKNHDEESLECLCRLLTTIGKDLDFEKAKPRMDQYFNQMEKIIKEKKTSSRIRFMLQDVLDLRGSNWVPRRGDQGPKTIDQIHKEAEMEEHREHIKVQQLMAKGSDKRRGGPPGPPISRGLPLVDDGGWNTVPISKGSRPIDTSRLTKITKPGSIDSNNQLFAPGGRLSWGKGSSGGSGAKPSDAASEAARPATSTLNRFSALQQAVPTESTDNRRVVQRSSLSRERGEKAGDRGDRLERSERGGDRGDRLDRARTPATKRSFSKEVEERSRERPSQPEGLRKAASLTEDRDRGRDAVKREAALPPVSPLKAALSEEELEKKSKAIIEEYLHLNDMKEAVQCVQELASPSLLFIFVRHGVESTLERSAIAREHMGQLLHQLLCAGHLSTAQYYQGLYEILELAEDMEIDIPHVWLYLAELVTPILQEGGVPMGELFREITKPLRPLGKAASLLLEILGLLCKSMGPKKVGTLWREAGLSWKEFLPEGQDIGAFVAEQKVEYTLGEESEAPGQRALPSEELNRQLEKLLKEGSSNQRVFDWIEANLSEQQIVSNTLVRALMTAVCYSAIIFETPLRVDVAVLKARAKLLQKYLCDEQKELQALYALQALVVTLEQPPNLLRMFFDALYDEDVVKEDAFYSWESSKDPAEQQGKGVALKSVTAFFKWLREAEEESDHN
UniProt O95163: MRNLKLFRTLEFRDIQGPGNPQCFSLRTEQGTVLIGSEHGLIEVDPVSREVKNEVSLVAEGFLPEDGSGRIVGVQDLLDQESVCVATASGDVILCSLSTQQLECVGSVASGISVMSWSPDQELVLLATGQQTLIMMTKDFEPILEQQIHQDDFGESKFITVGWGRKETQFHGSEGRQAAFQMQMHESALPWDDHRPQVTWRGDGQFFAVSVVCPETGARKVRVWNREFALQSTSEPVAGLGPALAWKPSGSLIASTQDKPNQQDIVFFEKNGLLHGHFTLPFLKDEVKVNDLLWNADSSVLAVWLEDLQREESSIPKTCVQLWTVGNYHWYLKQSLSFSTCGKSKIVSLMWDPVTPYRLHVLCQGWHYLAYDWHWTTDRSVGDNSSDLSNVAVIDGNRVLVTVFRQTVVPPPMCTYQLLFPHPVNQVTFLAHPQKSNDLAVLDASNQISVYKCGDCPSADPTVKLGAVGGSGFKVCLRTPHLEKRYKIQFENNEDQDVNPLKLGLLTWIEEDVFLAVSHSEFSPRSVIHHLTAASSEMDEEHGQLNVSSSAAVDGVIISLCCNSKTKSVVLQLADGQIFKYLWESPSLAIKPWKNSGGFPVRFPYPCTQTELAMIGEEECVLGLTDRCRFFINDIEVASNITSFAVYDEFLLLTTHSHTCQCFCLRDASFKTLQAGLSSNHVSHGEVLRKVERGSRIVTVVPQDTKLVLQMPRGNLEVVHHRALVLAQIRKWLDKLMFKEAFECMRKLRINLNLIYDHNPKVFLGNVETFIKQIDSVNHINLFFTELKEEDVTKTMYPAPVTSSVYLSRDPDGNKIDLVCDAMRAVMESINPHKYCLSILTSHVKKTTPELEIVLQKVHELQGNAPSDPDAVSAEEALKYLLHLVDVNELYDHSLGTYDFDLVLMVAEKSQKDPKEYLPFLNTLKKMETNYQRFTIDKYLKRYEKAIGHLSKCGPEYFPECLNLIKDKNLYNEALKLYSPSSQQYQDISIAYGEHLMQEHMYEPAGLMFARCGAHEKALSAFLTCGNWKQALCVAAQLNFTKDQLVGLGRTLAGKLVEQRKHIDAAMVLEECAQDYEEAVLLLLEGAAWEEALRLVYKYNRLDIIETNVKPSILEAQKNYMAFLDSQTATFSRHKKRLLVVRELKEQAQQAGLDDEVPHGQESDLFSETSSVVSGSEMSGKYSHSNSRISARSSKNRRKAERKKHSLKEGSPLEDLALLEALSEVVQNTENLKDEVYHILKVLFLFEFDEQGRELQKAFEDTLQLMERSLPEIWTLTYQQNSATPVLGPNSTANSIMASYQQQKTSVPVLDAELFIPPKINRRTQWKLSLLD
UniProt O75821, whole entry, looked up: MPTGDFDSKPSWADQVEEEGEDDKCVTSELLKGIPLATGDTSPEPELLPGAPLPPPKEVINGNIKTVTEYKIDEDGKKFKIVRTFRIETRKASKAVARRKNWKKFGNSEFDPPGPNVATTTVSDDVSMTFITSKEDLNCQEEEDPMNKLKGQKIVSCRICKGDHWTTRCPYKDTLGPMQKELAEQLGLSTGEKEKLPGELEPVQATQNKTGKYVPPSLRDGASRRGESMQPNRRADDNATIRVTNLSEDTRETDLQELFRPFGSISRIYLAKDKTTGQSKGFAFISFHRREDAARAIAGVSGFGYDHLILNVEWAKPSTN
UniProt Q05639, whole entry, looked up: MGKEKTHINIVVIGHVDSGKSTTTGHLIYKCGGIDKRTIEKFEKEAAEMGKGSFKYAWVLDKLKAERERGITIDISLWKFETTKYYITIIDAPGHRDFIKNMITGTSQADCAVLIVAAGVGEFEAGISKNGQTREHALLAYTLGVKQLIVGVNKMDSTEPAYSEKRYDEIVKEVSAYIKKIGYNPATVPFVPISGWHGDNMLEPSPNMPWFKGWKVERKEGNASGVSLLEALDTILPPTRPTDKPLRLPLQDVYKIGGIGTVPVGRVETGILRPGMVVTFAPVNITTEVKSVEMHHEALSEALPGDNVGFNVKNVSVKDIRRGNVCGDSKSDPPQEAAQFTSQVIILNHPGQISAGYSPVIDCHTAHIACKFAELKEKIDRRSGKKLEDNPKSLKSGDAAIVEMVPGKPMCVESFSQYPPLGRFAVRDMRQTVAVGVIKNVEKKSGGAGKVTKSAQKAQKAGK
UniProt Q6IA86: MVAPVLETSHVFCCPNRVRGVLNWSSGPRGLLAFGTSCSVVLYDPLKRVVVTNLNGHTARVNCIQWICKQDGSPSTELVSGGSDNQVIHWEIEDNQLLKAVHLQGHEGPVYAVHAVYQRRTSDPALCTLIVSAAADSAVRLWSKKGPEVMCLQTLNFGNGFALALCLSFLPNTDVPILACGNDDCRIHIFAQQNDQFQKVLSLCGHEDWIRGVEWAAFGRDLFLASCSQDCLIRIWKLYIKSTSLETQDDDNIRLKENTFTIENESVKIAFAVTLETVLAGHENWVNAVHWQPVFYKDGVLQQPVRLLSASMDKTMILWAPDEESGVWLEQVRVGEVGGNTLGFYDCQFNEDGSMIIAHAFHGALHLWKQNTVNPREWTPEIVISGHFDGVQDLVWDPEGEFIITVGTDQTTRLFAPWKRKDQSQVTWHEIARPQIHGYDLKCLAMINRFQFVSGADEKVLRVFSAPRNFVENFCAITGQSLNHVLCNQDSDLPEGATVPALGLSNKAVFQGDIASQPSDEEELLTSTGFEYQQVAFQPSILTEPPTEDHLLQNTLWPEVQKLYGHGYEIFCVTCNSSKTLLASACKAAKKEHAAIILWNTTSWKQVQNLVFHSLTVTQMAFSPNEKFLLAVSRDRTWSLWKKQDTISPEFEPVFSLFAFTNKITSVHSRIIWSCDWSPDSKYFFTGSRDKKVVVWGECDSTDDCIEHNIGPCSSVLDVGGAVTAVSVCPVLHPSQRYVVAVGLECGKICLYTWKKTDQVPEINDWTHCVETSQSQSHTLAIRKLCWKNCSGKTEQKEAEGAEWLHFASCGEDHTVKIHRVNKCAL
UniProt Q14249: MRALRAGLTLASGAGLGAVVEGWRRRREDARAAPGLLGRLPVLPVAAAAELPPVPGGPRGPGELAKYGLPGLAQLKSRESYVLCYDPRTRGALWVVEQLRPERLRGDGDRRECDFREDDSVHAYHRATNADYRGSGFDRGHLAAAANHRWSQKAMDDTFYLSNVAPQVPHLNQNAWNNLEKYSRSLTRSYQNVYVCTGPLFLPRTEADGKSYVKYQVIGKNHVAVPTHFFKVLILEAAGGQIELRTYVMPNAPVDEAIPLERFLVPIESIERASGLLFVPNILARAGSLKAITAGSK
UniProt Q0PNE2: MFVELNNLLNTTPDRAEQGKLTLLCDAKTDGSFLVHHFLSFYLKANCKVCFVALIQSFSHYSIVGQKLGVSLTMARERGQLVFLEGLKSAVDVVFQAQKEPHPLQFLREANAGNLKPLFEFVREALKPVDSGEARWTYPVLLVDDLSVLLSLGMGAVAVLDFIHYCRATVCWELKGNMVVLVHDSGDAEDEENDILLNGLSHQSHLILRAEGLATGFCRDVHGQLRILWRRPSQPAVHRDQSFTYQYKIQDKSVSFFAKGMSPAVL

Experiments:
Test in all cases: log2 fold change, soluble protein after heating vs DMSO (PISA); higher = thermal stabilisation; K562 cells, 10 uM, 30 min; active = over 0.2 and 3.5 SD of the protein, either way, in both replicates (recomputed)
erlotinib = compound: C#Cc1cccc(Nc2ncnc3cc(OCCOC)c(OCCOC)cc23)c1 [erlotinib]
In short: (§1)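 Values are thermal stability changes relative to control samples and are taken from duplicates. They are stated as log2 fold changes. Before quantification by TMTpro 16plex LC-MS/MS with equalised channel sums, K562 cells at 2×10^6 cells/mL were treated with 10 μM compound for 30 min, heated in aliquots for 3 min across 48°C-58°C, pooled, extracted in PBS with 0.5% NP-40 at 4°C, and centrifuged at 21,000xg for 90 min to give the soluble supernatant.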

[1] = compound: C/C(=N\NC(=O)C1=CC(=CC=C1)S(=O)(=O)N2CCOCC2)/C3=C(C=CC(=C3)Cl)O
In short: as §1

[2] = compound: C1=CC(=C(C=C1Cl)C2=NC3=NC=CN=C3C(=N2)NC4=CC=NC=C4)F
In short: as §1

[3] = compound: C1=CC(=CC=C1C2=NC3=C(N2)C=C(C=C3)C(=O)N)OC4=CC=C(C=C4)Cl
In short: as §1

[4] = compound: C1=CC2=C(C=CC(=C2)/C=C\3/C(=O)NC(=NCC4=CC=CS4)S3)N=C1
In short: as §1

[5] = compound: C1=CC2=NC=CN=C2C=C1/C=C/3\C(=O)NC(=O)S3
In short: as §1

[6] = compound: C1=CC=C(C=C1)C2=NC(=C(N2)C3=CC=NC=C3)C4=CC(=C(C=C4)Cl)O
In short: as §1

[7] = compound: C1=CC=C2C(=C1)C3=NNC4=CC=CC(=C43)C2=O
In short: as §1

[8] = compound: C1CCN(C1)C(=O)NC2=CC=CC(=C2)NC3=NC=C(C(=N3)NCCC4=CN=CN4)Br
In short: as §1

[9] = compound: C1CN(CCC1(CC2=CC=C(C=C2)Cl)N)C3=NC=NC4=C3C=CN4
In short: as §1

IRAK-1-4 Inhibitor I = compound: C1COCCN1CCN2C3=CC=CC=C3N=C2NC(=O)C4=CC(=CC=C4)[N+](=O)[O-] [IRAK-1-4 Inhibitor I]
In short: as §1

ibrutinib = compound: C=CC(=O)N1CCC[C@@H](n2nc(-c3ccc(Oc4ccccc4)cc3)c3c(N)ncnc32)C1 [ibrutinib]
In short: as §1

[10] = compound: CC(=O)c1cnc2ccc(-c3cc(Cl)c(O)c(Cl)c3)nc2c1N[C@H]1CC[C@H](CN(C)C)CC1
In short: as §1

ralimetinib = compound: CC(C)(C)Cn1c(N)nc2ccc(-c3[nH]c(C(C)(C)C)nc3-c3ccc(F)cc3)nc21 [ralimetinib]
In short: as §1

[11] = compound: CC(C)(O)CC(=O)NCCn1ccc2ncnc(Nc3ccc(Oc4cccc(C(F)(F)F)c4)c(Cl)c3)c21
In short: as §1

[12] = compound: CC(C)C1=C2N=C(C=C(N2N=C1)NCC3=CC=CC=C3)NCCCCCCN
In short: as §1

[13] = compound: CC(C)C[C@@H](C=O)NC(=O)[C@H](CC(C)C)NC(=O)[C@H](CC(C)C)NC(=O)OCc1ccccc1
In short: as §1

pinometostat = compound: CC(C)N(C[C@H]1O[C@@H](n2cnc3c(N)ncnc32)[C@H](O)[C@@H]1O)[C@H]1C[C@@H](CCc2nc3cc(C(C)(C)C)ccc3[nH]2)C1 [pinometostat]
In short: as §1

[14] = compound: CC1=C(C(CC(=O)N1)C2=CC=C(C=C2)C(F)(F)F)C(=O)NC3=C(C=C4C(=C3)C=NN4)F
In short: as §1

[15] = compound: CC1=C(C2=C(C=C1)C(=O)C3=CC=CC=C3N2CCCN)C
In short: as §1

Measured: log2 fold change

EIF3L (UniProt Q9Y262)
inactive: erlotinib -0.031 | [1] 0.033 | [2] 0.172 | [3] 0.021 | [4] -0.003 | [5] 0.024 | [6] 0.009 | [7] 0.019 | [8] -0.001 | [9] 0 | IRAK-1-4 Inhibitor I 0.038 | ibrutinib -0.002 | [10] -0.022 | ralimetinib -0.03 | [11] -0.036 | [12] -0.028 | [13] -0.005 | pinometostat 0.002 | [14] 0.051 | [15] -0.01

EIF2S3 (UniProt P41091)
inactive: erlotinib -0.028 | [1] -0.041 | [2] -0.18 | [3] -0.004 | [4] -0.023 | [5] -0.006 | [6] -0.037 | [7] 0.015 | [8] -0.023 | [9] -0.06 | IRAK-1-4 Inhibitor I -0.126 | ibrutinib 0.021 | [10] -0.004 | ralimetinib 0.061 | [11] 0.05 | [12] 0.052 | [13] 0.075 | pinometostat 0.077 | [15] 0.195

EEF1D isoform 2 (UniProt P29692)
inactive: erlotinib 0 | [1] 0.031 | [2] 0.016 | [3] -0.028 | [4] 0.025 | [5] 0.02 | [6] -0.03 | [7] 0.021 | [8] 0.048 | [9] -0.055 | IRAK-1-4 Inhibitor I -0.038 | ibrutinib -0.039 | [10] 0.012 | ralimetinib 0.026 | [11] -0.006 | [12] -0.051 | [13] 0.029 | pinometostat 0.065 | [15] 0.039

EIF2B4 isoform 2 (UniProt Q9UI10)
inactive: erlotinib 0.02 | [1] -0.029 | [2] -0.044 | [3] 0.044 | [4] 0.032 | [5] -0.001 | [6] 0.055 | [7] 0 | [8] -0.012 | [9] -0.032 | IRAK-1-4 Inhibitor I -0.029 | ibrutinib -0.007 | [10] -0.03 | ralimetinib 0.054 | [11] -0.018 | [12] -0.11 | [13] 0.047 | pinometostat 0.093 | [14] 0.01 | [15] 0.014

EIF4G1 isoform 8 (UniProt Q04637)
inactive: erlotinib -0.092 | [1] 0.128 | [2] -0.065 | [3] 0.011 | [4] -0.036 | [5] -0.089 | [6] -0.099 | [7] -0.246 | [8] -0.197 | [9] -0.28 | IRAK-1-4 Inhibitor I -0.124 | ibrutinib -0.148 | [10] -0.3 | ralimetinib 0.057 | [11] -0.053 | [12] -0.387 | [13] 0.046 | pinometostat 0.149 | [15] 0.018

ELP1 (UniProt O95163)
inactive: erlotinib 0.026 | [1] -0.013 | [2] 0.044 | [3] -0.025 | [4] 0.032 | [5] 0 | [6] 0.012 | [7] 0.037 | [8] -0.018 | [9] 0.03 | IRAK-1-4 Inhibitor I -0.003 | ibrutinib 0.016 | [10] -0.004 | ralimetinib -0.054 | [11] -0.005 | [12] 0.043 | [13] 0 | pinometostat -0.007 | [14] 0.01 | [15] 0.015

EPB41L1 (UniProt Q9H4G0)
inactive: erlotinib -0.036 | [1] -0.083 | [2] -0.006 | [3] 0.067 | [4] -0.071 | [5] 0.009 | [6] 0.005 | [7] 0.066 | [8] -0.075 | [9] 0.002 | IRAK-1-4 Inhibitor I -0.002 | ibrutinib 0.013 | [10] -0.026 | ralimetinib 0.036 | [11] -0.005 | [12] -0.196 | [13] -0.043 | pinometostat -0.02 | [14] 0.023 | [15] 0.185

EIF3G (UniProt O75821)
inactive: erlotinib -0.007 | [1] 0.024 | [2] -0.016 | [3] 0.031 | [4] -0.058 | [5] 0.017 | [6] -0.001 | [7] 0.008 | [8] -0.003 | [9] -0.022 | IRAK-1-4 Inhibitor I -0.023 | ibrutinib -0.044 | [10] 0.017 | ralimetinib 0.044 | [11] -0.029 | [12] -0.037 | [13] 0.064 | pinometostat 0.084 | [14] 0.062 | [15] 0

EEF1A2 (UniProt Q05639)
inactive: erlotinib 0.02 | [1] 0.008 | [2] -0.048 | [3] 0.004 | [4] 0.065 | [5] -0.003 | [6] 0.008 | [7] 0.003 | [8] 0.022 | [9] 0.025 | IRAK-1-4 Inhibitor I 0.022 | ibrutinib 0.007 | [10] -0.028 | ralimetinib -0.03 | [11] -0.001 | [12] 0.009 | [13] -0.016 | pinometostat -0.031 | [14] -0.007 | [15] -0.01

ELP2 isoform 6 (UniProt Q6IA86)
inactive: erlotinib -0.005 | [1] 0.005 | [2] 0.064 | [3] -0.003 | [4] 0.042 | [5] -0.026 | [6] 0.003 | [7] -0.02 | [8] 0.002 | [9] -0.004 | IRAK-1-4 Inhibitor I 0.003 | ibrutinib 0.013 | [10] -0.015 | ralimetinib -0.057 | [11] -0.023 | [12] 0.006 | [13] -0.05 | pinometostat -0.001 | [14] 0.047 | [15] 0.015

Fetched one by one from the entries so far (two):
EIF3G (UniProt O75821)
inactive: erlotinib -0.007 | [1] 0.024 | [2] -0.016 | [3] 0.031 | [4] -0.058 | [5] 0.017 | [6] -0.001 | [7] 0.008 | [8] -0.003 | [9] -0.022 | IRAK-1-4 Inhibitor I -0.023 | ibrutinib -0.044 | [10] 0.017 | ralimetinib 0.044 | [11] -0.029 | [12] -0.037 | [13] 0.064 | pinometostat 0.084 | [14] 0.062 | [15] 0

EIF2S3 (UniProt P41091)
inactive: erlotinib -0.028 | [1] -0.041 | [2] -0.18 | [3] -0.004 | [4] -0.023 | [5] -0.006 | [6] -0.037 | [7] 0.015 | [8] -0.023 | [9] -0.06 | IRAK-1-4 Inhibitor I -0.126 | ibrutinib 0.021 | [10] -0.004 | ralimetinib 0.061 | [11] 0.05 | [12] 0.052 | [13] 0.075 | pinometostat 0.077 | [15] 0.195

Continuation.

ENGASE (UniProt Q8NFI3)
inactive: erlotinib 0.031 | [1] 0.034 | [2] 0.017 | [3] 0.017 | [4] 0.072 | [5] 0.088 | [6] -0.034 | [7] 0.057 | [8] -0.01 | [9] 0.002 | IRAK-1-4 Inhibitor I 0.036 | ibrutinib -0.028 | [10] -0.05 | ralimetinib -0.001 | [11] -0.037 | [12] 0.005 | [13] 0.082 | pinometostat -0.006 | [14] 0.029 | [15] 0.005

EIF4E isoform 2 (UniProt P06730)
inactive: erlotinib 0.084 | [1] -0.035 | [2] 0.056 | [3] -0.073 | [4] 0.01 | [5] 0.168 | [6] 0.074 | [7] 0.152 | [8] 0.181 | [9] 0.146 | IRAK-1-4 Inhibitor I 0.066 | ibrutinib 0.089 | [10] 0.308 | ralimetinib -0.071 | [11] -0.016 | [12] 0.114 | [13] 0.012 | pinometostat -0.057 | [15] 0.027

ENDOG (UniProt Q14249)
inactive: erlotinib 0.087 | [1] 0.023 | [2] 0.068 | [3] -0.042 | [4] 0.03 | [5] -0.002 | [6] 0.016 | [7] 0.064 | [8] 0.036 | [9] 0.071 | IRAK-1-4 Inhibitor I -0.034 | ibrutinib -0.05 | [10] -0.029 | ralimetinib 0.03 | [11] -0.02 | [12] -0.003 | [13] 0.001 | pinometostat -0.022 | [14] -0.037 | [15] 0.187

ELP6 (UniProt Q0PNE2)
inactive: erlotinib -0.005 | [1] 0.007 | [2] -0.012 | [3] 0.012 | [4] 0.017 | [5] 0.014 | [6] -0.031 | [7] -0.013 | [8] -0.034 | [9] 0.041 | IRAK-1-4 Inhibitor I 0.023 | ibrutinib -0.015 | [10] -0.035 | ralimetinib -0.057 | [11] -0.017 | [12] 0.061 | [13] 0.018 | pinometostat 0.02 | [14] -0.005 | [15] 0.015

EIF4A1 (UniProt P60842)
inactive: erlotinib 0.036 | [1] 0.049 | [2] 0.047 | [3] -0.023 | [4] 0.016 | [5] -0.021 | [6] 0.007 | [7] 0.035 | [8] -0.039 | [9] 0.054 | IRAK-1-4 Inhibitor I -0.008 | ibrutinib -0.022 | [10] -0.131 | ralimetinib 0.026 | [11] -0.151 | [12] -0.124 | [13] -0.001 | pinometostat 0.016 | [15] 0.017

EIF3J (UniProt O75822)
inactive: erlotinib 0.056 | [1] -0.004 | [2] 0.068 | [3] -0.033 | [4] 0.012 | [5] 0.048 | [6] 0.101 | [7] 0.021 | [8] 0.009 | [9] -0.01 | IRAK-1-4 Inhibitor I 0.118 | ibrutinib -0.031 | [10] 0.035 | ralimetinib 0.093 | [11] -0.031 | [12] -0.007 | [13] -0.079 | pinometostat -0.007 | [15] -0.025
